Experiment: MARIPOSA Phase 3, treatment duration and disposition
Format: in vivo, human
Conditions: median follow-up 22.0 months

## C=CC(=O)Nc1cc(Nc2nccc(-c3cn(C)c4ccccc34)n2)c(OC)cc1N(C)CCN(C)C [Osimertinib]
  Median treatment duration: 18.0 months

Source: patent publication US20260356957A1, “METHODS FOR TREATMENT OF NON-SMALL CELL LUNG CANCER (NSCLC)” (Janssen Biotech, Inc., priority 2023, published 2026)
